Measured values taken from paper PMC11183229.
Results are given in words; binding and its absence hold for the method and conditions named. Binding seen in cells or lysates may run through a third protein. A yes stands for co-enrichment or nearness to the bait. Other partners may have been found. Where a sequence is shown, tags or fusion partners need not be part of it.

Sequences of proteins named here, by UniProt entry; tags and fusion partners are left off.
UniProt P21279: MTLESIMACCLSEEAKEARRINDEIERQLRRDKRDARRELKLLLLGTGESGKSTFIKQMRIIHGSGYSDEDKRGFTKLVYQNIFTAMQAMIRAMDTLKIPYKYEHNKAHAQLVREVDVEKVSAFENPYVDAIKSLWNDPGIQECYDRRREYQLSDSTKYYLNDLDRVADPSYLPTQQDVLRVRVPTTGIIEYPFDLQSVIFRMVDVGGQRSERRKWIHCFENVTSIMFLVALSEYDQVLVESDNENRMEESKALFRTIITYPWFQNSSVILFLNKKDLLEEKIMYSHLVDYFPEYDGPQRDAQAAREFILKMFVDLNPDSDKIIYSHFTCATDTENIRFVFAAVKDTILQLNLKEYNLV

Biological target: T1, HA-tagged TMC6 (mouse) (UniProt Q7TN60)
T1 sequence: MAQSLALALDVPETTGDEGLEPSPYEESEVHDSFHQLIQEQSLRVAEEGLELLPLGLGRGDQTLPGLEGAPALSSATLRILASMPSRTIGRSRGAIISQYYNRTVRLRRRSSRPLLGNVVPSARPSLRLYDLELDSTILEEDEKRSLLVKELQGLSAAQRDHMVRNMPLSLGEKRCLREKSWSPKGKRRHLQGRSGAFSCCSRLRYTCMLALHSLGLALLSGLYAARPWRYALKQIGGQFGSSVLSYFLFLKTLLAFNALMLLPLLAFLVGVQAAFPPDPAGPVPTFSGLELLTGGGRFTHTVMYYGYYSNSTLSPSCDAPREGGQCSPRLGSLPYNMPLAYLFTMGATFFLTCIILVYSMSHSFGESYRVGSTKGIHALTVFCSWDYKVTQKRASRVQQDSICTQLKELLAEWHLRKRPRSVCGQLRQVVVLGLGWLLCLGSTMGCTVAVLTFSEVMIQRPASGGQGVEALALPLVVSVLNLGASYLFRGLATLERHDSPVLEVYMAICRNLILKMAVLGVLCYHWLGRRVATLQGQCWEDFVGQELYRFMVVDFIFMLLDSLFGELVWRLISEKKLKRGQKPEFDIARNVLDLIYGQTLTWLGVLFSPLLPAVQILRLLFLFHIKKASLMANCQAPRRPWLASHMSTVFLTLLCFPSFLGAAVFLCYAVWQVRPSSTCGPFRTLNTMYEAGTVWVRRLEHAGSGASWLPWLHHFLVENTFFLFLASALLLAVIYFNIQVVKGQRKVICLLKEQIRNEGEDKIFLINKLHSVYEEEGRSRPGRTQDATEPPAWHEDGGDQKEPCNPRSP
Experiment: affinity purification with mass spectrometry; IP with antibody against HA from lysate of ND7/23 cells overexpressing 2HA-TMC6, then mass spectrometry

binding: binds
Substance: Gαq (endogenous, ND7/23 cells) (from UniProt P21279 1-359)
